Test results: the supplement of paper PMC12819154, “High-throughput peptide-centric local stability assay extends protein–ligand identification to membrane proteins, tissues and bacteria” (Nature Structural & Molecular Biology, 2025)
The other results are listed elsewhere or left out. Most entries show no effect beyond the scatter of the controls.

Sequences of proteins named here, by UniProt entry; tags and fusion partners are left off. A change or cut given only in a name is not applied to a line headed by its entry.
UniProt Q96GD3: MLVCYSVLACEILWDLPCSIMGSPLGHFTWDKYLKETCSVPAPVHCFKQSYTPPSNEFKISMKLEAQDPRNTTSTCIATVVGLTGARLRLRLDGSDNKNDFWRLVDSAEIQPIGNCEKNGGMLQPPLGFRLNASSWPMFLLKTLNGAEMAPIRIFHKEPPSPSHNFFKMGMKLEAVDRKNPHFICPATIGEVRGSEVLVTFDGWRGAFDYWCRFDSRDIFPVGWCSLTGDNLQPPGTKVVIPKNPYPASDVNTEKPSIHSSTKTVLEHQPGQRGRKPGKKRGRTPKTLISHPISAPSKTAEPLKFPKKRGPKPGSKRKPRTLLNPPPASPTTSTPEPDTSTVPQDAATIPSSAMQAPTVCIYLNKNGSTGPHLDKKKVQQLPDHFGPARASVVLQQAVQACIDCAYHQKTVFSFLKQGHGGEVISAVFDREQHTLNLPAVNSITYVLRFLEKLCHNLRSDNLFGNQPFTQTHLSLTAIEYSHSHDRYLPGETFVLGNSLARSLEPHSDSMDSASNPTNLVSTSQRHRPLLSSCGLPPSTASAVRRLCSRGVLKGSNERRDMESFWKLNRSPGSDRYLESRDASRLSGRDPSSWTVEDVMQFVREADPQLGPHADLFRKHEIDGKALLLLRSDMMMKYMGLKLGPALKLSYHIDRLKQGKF
UniProt Q96S15: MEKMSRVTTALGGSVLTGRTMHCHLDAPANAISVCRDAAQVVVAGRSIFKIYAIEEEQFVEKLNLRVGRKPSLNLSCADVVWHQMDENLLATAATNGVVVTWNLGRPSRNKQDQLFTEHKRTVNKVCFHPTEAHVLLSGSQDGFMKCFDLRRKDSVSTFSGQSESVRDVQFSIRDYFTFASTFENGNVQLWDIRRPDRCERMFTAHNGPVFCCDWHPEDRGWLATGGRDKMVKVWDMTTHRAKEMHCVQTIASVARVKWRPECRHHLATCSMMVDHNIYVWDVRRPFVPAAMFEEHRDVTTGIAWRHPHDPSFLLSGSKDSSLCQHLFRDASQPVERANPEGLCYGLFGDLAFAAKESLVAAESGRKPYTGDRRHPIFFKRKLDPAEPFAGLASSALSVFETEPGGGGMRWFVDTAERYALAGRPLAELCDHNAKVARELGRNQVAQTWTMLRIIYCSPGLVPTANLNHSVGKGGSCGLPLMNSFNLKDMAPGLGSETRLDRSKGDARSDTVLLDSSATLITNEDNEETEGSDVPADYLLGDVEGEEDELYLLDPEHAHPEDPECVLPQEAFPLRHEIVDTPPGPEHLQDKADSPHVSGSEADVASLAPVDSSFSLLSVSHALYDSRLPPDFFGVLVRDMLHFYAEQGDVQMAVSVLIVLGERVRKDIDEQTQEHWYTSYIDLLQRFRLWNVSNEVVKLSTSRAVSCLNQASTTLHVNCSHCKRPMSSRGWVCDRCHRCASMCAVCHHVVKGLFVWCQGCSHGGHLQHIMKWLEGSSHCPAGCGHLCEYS
UniProt Q96N66: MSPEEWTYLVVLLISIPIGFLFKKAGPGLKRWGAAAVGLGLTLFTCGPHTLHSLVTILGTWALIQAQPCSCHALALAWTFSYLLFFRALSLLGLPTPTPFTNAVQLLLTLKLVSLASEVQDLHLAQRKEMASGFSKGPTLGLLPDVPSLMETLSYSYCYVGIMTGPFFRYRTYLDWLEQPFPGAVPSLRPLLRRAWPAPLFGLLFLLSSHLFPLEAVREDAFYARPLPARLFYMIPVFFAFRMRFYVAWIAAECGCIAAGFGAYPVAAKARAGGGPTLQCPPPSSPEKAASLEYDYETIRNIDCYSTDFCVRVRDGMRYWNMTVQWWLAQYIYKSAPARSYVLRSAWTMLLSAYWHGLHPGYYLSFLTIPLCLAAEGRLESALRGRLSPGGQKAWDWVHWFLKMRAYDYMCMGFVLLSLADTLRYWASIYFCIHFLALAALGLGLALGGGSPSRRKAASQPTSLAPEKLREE
UniProt Q96KN8: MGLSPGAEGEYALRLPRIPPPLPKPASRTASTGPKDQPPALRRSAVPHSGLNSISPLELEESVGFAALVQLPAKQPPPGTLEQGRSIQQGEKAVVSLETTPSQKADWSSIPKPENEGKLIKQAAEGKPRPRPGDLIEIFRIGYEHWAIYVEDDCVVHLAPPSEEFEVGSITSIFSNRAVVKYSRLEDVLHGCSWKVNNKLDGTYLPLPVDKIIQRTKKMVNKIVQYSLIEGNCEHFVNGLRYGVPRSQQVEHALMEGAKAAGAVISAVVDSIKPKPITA
UniProt Q96RE7: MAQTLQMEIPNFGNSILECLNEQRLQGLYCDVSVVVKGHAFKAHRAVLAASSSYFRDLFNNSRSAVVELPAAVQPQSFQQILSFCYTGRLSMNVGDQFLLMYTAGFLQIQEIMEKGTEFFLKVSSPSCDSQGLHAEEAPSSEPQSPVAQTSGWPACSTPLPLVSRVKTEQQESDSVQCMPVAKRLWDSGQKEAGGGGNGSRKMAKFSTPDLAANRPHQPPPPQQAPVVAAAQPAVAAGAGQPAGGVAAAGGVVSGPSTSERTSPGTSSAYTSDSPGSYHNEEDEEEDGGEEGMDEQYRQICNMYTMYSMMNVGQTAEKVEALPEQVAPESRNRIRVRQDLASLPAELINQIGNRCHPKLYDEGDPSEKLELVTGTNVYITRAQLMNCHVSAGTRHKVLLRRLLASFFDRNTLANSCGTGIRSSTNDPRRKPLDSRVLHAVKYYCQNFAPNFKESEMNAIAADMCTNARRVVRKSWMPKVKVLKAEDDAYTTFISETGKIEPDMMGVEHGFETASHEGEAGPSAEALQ
UniProt Q96PZ2, whole entry: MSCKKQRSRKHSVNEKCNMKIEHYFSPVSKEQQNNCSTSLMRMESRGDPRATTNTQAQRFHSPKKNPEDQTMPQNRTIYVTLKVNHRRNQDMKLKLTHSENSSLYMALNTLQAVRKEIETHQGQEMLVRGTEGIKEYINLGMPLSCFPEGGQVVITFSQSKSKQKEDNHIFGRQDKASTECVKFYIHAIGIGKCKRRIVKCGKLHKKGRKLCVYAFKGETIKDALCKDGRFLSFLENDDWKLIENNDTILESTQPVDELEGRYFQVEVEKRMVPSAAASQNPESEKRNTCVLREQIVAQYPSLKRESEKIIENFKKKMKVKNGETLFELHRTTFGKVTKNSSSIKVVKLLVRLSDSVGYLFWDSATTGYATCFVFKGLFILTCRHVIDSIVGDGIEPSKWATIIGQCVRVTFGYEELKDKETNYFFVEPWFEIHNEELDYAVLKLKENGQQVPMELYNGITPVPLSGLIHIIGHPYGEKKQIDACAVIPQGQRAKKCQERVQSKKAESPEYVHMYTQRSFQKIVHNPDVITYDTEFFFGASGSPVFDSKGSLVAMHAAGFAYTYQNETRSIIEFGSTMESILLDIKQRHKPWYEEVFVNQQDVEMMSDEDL
UniProt Q96JK2, whole entry: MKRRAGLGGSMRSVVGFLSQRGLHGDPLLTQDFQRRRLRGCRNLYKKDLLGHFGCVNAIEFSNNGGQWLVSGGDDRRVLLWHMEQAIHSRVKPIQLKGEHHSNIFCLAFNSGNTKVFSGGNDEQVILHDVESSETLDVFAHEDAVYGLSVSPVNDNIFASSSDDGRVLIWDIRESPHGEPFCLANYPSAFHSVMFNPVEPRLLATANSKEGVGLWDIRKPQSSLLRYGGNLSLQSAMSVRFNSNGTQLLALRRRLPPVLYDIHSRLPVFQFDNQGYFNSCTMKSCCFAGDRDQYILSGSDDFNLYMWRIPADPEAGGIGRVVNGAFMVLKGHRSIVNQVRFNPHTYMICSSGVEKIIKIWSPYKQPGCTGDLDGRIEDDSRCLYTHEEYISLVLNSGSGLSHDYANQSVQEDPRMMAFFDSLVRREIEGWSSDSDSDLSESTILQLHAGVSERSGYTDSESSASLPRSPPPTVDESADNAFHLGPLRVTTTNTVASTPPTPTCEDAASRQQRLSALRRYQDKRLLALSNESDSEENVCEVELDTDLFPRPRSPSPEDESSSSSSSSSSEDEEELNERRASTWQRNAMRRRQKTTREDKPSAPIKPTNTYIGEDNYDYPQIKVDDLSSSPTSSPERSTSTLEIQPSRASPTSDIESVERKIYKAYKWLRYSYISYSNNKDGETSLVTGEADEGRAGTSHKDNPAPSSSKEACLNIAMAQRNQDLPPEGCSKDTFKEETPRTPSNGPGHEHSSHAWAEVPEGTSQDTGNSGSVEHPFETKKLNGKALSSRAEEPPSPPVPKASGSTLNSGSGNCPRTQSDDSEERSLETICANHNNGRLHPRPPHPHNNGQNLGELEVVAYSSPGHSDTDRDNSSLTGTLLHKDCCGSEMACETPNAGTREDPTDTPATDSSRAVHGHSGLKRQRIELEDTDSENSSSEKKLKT
UniProt Q96RG2: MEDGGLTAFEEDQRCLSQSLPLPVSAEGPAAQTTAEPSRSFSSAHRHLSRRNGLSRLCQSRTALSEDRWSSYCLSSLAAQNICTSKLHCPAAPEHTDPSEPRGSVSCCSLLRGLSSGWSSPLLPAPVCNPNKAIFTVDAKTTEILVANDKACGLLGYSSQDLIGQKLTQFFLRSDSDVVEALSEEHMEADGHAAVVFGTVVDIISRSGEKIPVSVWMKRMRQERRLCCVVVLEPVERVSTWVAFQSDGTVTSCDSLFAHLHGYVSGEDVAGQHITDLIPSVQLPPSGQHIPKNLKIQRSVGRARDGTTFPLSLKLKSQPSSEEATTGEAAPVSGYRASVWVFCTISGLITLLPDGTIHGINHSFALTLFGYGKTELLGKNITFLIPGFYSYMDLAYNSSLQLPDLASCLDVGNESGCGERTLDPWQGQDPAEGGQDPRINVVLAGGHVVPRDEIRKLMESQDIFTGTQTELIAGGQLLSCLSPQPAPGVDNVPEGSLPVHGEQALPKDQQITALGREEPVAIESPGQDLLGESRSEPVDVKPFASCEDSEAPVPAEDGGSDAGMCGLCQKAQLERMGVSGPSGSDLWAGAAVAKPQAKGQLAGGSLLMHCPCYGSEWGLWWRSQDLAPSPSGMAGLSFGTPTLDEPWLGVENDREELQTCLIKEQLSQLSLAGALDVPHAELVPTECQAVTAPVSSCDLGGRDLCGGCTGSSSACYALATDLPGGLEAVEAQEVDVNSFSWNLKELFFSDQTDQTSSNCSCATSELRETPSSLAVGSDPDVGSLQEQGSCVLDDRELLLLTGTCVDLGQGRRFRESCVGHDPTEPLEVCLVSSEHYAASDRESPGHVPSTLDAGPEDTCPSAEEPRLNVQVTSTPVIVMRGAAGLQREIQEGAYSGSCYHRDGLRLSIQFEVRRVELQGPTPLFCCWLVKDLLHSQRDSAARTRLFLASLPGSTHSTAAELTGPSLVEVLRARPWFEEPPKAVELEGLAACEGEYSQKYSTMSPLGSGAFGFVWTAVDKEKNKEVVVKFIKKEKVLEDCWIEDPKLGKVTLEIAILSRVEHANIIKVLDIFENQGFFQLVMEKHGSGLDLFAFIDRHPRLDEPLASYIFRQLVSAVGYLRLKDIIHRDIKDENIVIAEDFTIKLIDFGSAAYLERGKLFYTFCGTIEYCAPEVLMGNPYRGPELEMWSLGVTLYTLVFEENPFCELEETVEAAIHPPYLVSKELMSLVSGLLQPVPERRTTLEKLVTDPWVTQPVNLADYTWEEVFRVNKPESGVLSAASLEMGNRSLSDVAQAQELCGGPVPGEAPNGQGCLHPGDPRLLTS

The targets below were run with Cc1nc(Nc2ncc(C(=O)Nc3c(C)cccc3Cl)s2)cc(N2CCN(CCO)CC2)n1 [dasatinib] (assay: log2 fold change of tryptic peptide abundance, ligand vs vehicle (limited proteolysis) (log2 ratio); higher = more trypsin-susceptible (destabilized)). Details: ligand concentration: 5 uM; sample: K562 cleared lysate.
“UniProt Q96GD3 (peptide sequence: TVLEHQPGQR, peptide start residue: 264)” was tested, and the log2 fold change was 0.0944.
“WDR24 (peptide sequence: HEIVDTPPGPEHLQDK, peptide start residue: 576) (UniProt Q96S15)” showed a log2 fold change of 0.157.
In the case of “MBOAT7 (peptide sequence: KEMASGFSK, peptide start residue: 128) (UniProt Q96N66)”, the log2 fold change is reported as 0.294.
“UniProt Q96KN8 (peptide sequence: PASRTASTGPK, peptide start residue: 25)” was tested, and the log2 fold change was -0.0128.
For “NACC1 (peptide sequence: VKTEQQESDSVQCMPVAKR, peptide start residue: 166) (UniProt Q96RE7)”, the log2 fold change was 0.406.
Target “FAM111A (peptide sequence: KAESPEYVHMYTQR, peptide start residue: 505) (UniProt Q96PZ2)” has a log2 fold change of 0.568.
“DCAF5 (peptide sequence: AVHGHSGLKR, peptide start residue: 912) (UniProt Q96JK2)” gave a log2 fold change of -0.274.
Work on “PASK (peptide sequence: HGSGLDLFAFIDRHPR, peptide start residue: 1084) (UniProt Q96RG2)” yielded a log2 fold change of -0.32.
